# Data taken from PubChem BioAssay AID190 (DTP/NCI, 2004).
# The list does not hold the whole screen: it is rich in T/C values a quarter to a half above the control, in often repeated tests (any T/C) and in doses without a T/C. Other doses and runs of a compound stand elsewhere. T/C: endpoint of the treated group in % of that of the vehicle group. Some doses have a count of surviving animals in place of a T/C: the source files T/C as zero there, which appears to mark a toxic dose or a test without result, not a measured value. Some doses without a T/C left all or most animals alive at the check, yet need not have been tolerated: survival well below the control is almost never listed, so the zero probably covers shortened survival too. Counts of survivors are from the toxicity check (mostly the fifth day) where no day follows; animals may have died later. Schedules are NCI's codes, read here as Q, the interval in days (D) or hours (H), X, the number of doses. Some entries were tested several times; the results are listed from low to high. Where survival is the endpoint, the PubChem record calls one and a half times the control and up active, and a quarter to a half above the control has no call in these data; cut-offs in other NCI protocols can differ. Some T/C values are followed by the survivors on the day toxicity was checked, most often the fifth; without a count, all were alive then.
# Tested on: AKR/Lw mice, AKR lymphoma ip, median survival T/C
# Experiment: NCI In Vivo Anticancer Drug Screen. Data for tumor model Lymphoma AKR (Transplanted) (intraperitoneal) in AKR/Lw mice
# Conditions: T/C endpoint: median survival time, higher T/C = longer survival
# Experimental: The antitumor activity of compounds was measured in mice bearing transplantable tumors. Survival or tumor size were measured and the results are expressed as the measurement made in the treated group (T) divided by the measurement made in the vehicle treated control group (C). The tumor model used in this assay is Lymphoma AKR (Transplanted) (intraperitoneal) in AKR/Lw mice
# [1] = dose: 0.5 mg/kg/injection, schedule: Q01DX009 (ip), vehicle: saline
# [2] = dose: 2.0 mg/kg/injection, schedule: Q01DX009 (ip), vehicle: saline
# [3] = dose: 3.0 mg/kg/injection, schedule: Q04DX003 (ip), vehicle: saline
# [4] = dose: 4.0 mg/kg/injection, schedule: Q01DX009 (ip), vehicle: saline
# [5] = dose: 7.5 mg/kg/injection, schedule: Q04DX003 (ip), vehicle: saline
# [6] = dose: 8.0 mg/kg/injection, schedule: Q04DX003 (ip), vehicle: saline
# [7] = dose: 12.5 mg/kg/injection, schedule: Q01DX001 (ip), vehicle: saline
# [8] = dose: 20.0 mg/kg/injection, schedule: Q01DX001 (ip), vehicle: saline
# [9] = dose: 25.0 mg/kg/injection, schedule: Q01DX001 (ip), vehicle: saline
smiles,measurement,setting,value
CCOc1ccc2nc(N)sc2c1,survivor count,"dose: 400.0 mg/kg/injection, schedule: Q01DX001 (ip), vehicle: Klucel (hydroxypropylcellulose) (HPC)",6 of 10
COc1ccc(S(=O)O)cc1NC(C)=O,survivor count,"dose: 400.0 mg/kg/injection, schedule: Q01DX001 (ip), vehicle: saline",9 of 10
S=P(N1CC1)(N1CC1)N1CC1,T/C,"dose: 0.02 mg/kg/injection, schedule: Q01DX009 (ip), vehicle: saline",133 % of control
same,T/C,"dose: 0.05 mg/kg/injection, schedule: Q01DX009 (ip), vehicle: saline",125 % of control [7 of 10 alive]
same,survivor count,"dose: 0.12 mg/kg/injection, schedule: Q01DX009 (ip), vehicle: saline",10 of 10
same,survivor count,"dose: 0.25 mg/kg/injection, schedule: Q01DX009 (ip), vehicle: saline",10 of 10
same,survivor count,[1],10 of 10
same,survivor count,"dose: 0.75 mg/kg/injection, schedule: Q01DX009 (ip), vehicle: saline",10 of 10
same,survivor count,"dose: 1.5 mg/kg/injection, schedule: Q01DX009 (ip), vehicle: saline",9 of 10
same,T/C,[2],126 % of control
same,survivor count,[2],9 of 10
same,T/C,"dose: 2.0 mg/kg/injection, schedule: Q04DX003 (ip), vehicle: saline","94 [7 of 10 alive], 100, 107, 116, 117 % of control"
same,survivor count,"dose: 3.0 mg/kg/injection, schedule: Q01DX009 (ip), vehicle: saline",10 of 10
same,T/C,[3],129 % of control
same,survivor count,[3],10 of 10
same,T/C,[4],132 % of control
same,survivor count,[4],7 of 10
same,T/C,"dose: 4.0 mg/kg/injection, schedule: Q04DX003 (ip), vehicle: saline","95, 116, 126, 146, 147 % of control [9 of 10 alive]"
same,survivor count,"dose: 5.0 mg/kg/injection, schedule: Q01DX009 (ip), vehicle: saline",10 of 10
same,T/C,"dose: 5.0 mg/kg/injection, schedule: Q04DX003 (ip), vehicle: saline","106, 118, 136, 140, 144, 155 % of control"
same,T/C,"dose: 6.2 mg/kg/injection, schedule: Q01DX001 (ip), vehicle: saline",139 % of control [9 of 10 alive]
same,T/C,"dose: 6.25 mg/kg/injection, schedule: Q01DX001 (ip), vehicle: saline",126 % of control
same,T/C,[5],129 % of control
same,survivor count,[5],10 of 10
same,T/C,[6],"88, 100 [9 of 10 alive], 188 % of control"
same,survivor count,[6],10 of 10
same,T/C,"dose: 10.0 mg/kg/injection, schedule: Q01DX001 (ip), vehicle: saline",127 and 135 % of control
same,survivor count,"dose: 10.0 mg/kg/injection, schedule: Q01DX009 (ip), vehicle: saline",8 of 10
same,survivor count,"dose: 10.0 mg/kg/injection, schedule: Q04DX003 (ip), vehicle: saline",9 of 10 and 10 of 10
same,T/C,[7],"121, 122, 133, 133 [9 of 10 alive], 142 % of control [9 of 10 alive]"
same,survivor count,[7],9 of 10
same,survivor count,"dose: 15.0 mg/kg/injection, schedule: Q01DX001 (ip), vehicle: saline",7 of 10
same,survivor count,"dose: 16.0 mg/kg/injection, schedule: Q04DX003 (ip), vehicle: saline",10 of 10
same,T/C,[8],102 [9 of 10 alive] and 125 % of control [9 of 10 alive]
same,survivor count,[8],4 of 10 and 5 of 10
same,survivor count,"dose: 20.0 mg/kg/injection, schedule: Q01DX009 (ip), vehicle: saline",4 of 10
same,survivor count,"dose: 20.0 mg/kg/injection, schedule: Q04DX003 (ip), vehicle: saline",8 of 10
same,survivor count,"dose: 25.0 mg/kg/injection, schedule: Q01DX001 (ip), vehicle: saline with Tween-80",10 of 10
same,T/C,[9],"111 [8 of 10 alive], 131, 139 % of control [9 of 10 alive]"
same,survivor count,[9],"1 of 10, 2 of 10, 3 of 10, 4 of 10, 6 of 10"
same,survivor count,"dose: 30.0 mg/kg/injection, schedule: Q01DX009 (ip), vehicle: saline",0 of 10
same,survivor count,"dose: 32.0 mg/kg/injection, schedule: Q04DX003 (ip), vehicle: saline",10 of 10
same,survivor count,"dose: 50.0 mg/kg/injection, schedule: Q01DX001 (ip), vehicle: saline with Tween-80",10 of 10
same,survivor count,"dose: 50.0 mg/kg/injection, schedule: Q01DX001 (ip), vehicle: saline","0 of 10, 1 of 10, 2 of 10, 6 of 10"
same,survivor count,"dose: 60.0 mg/kg/injection, schedule: Q01DX009 (ip), vehicle: saline",0 of 10
same,survivor count,"dose: 100.0 mg/kg/injection, schedule: Q01DX001 (ip), vehicle: saline with Tween-80",10 of 10
same,survivor count,"dose: 100.0 mg/kg/injection, schedule: Q01DX001 (ip), vehicle: saline",0 of 10
same,survivor count,"dose: 50.0 micrograms/kg/injection, schedule: Q01DX009 (ip), vehicle: saline",10 of 10
COc1cc([C@@H]2c3cc4c(c(O)c3C[C@H]3COC(=O)[C@@H]32)OCO4)cc(OC)c1O,survivor count,"dose: 0.5 mg/kg/injection, schedule: Q01DX009 (ip), vehicle: Klucel (hydroxypropylcellulose) (HPC)",10 of 10
same,survivor count,"dose: 1.0 mg/kg/injection, schedule: Q01DX009 (ip), vehicle: Klucel (hydroxypropylcellulose) (HPC)",10 of 10
CN(CCOc1ccccc1O)CCOc1ccccc1O,survivor count,"dose: 400.0 mg/kg/injection, schedule: Q04DX003 (ip), vehicle: Klucel (hydroxypropylcellulose) (HPC)",8 of 10
COc1cc([C@@H]2c3cc4c(c(O)c3C[C@H]3COC(=O)[C@@H]32)OCO4)cc(OC)c1OC,T/C,[1],139 % of control [9 of 10 alive]
same,T/C,"dose: 1.0 mg/kg/injection, schedule: Q01DX009 (ip), vehicle: saline",125 % of control
same,survivor count,[2],10 of 10
same,survivor count,[4],9 of 10
